# PubChem BioAssay AID652259 | Drosophila RNAi Screening Center | 2013
# Assay: 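Identify new Wingless signalling regulators in fly cells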 (primary screen)
# System: Drosophila clone 8 imaginal disc epithelial cells
# Reagents: long dsRNA against Drosophila genes
# Challenge: pathway stimulated by co-transfected Wingless expression plasmid
# Detection: 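Dual luciferase reads per well after Wingless plasmid stimulation: reporter firefly light and Renilla control light; activity is firefly divided by Renilla, a ratio not deposited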
# Reading the numbers: firefly reporter light: higher = more Wg reporter light, before normalisation; Renilla control light: higher = more transfected or surviving cells
# Call rule: 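Strong candidates differ from their plate mean by at least two out of four per-plate statistical tests; weak candidates meet just one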
# Calls: active = candidate regulator (raises or lowers reporter); inactive = not a candidate
# The deposit covers about 22,000 reagents; shown is a random part of those with a known target gene and a result. Over the whole deposit, 233 (1.1%) were called active. 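Light values are raw, unnormalised plate reads; the ratio scores behind the reporter calls were not deposited.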 A number with no mark means an inactive call. Reagents against one gene are numbered here. Names joined by + are all predicted targets of the reagent. Not stated in the record: the amount of reagent, the time to read-out, the dose of the treatment.
Gene,reagent,"reporter change call, replicate 1","firefly reporter light, replicate 1","firefly reporter light, replicate 2","Renilla control light, replicate 1","Renilla control light, replicate 2"
CR16735 (pseudo),1,,19280,,5429,
Gyc88E (Guanylyl cyclase at 88E),1,,17835,,3584,
CG33722 + CG18749,1,,2913,,1184,
CG33722 + CG18749,2,,15435,,3978,
RunxA (Runt related A),1,,4576,,1372,
RunxA (Runt related A),2,,17223,,3447,
RunxA (Runt related A),3,,17656,,9720,
RunxA (Runt related A),4,,6.84e5,6.90e5,3.02e5,3.10e5
Mtl (Mig-2-like),1,,8812,,3714,
Gr61a (Gustatory receptor 61a),1,,8251,,2584,
CG42780,1,,2400,,781,
CG13032,1,,7769,,2736,
COX6AL (Cytochrome c oxidase subunit 6A-like),1,,5.97e5,5.83e5,2.66e5,2.24e5

The list goes on; the last 3 above are carried over.
Gene,reagent,"reporter change call, replicate 1","firefly reporter light, replicate 1","firefly reporter light, replicate 2","Renilla control light, replicate 1","Renilla control light, replicate 2"
CG42780,1,,2400,,781,
CG13032,1,,7769,,2736,
COX6AL (Cytochrome c oxidase subunit 6A-like),1,,5.97e5,5.83e5,2.66e5,2.24e5
spn-E (spindle E),1,,19932,,4506,
CCKLR-17D1 (Cholecystokinin-like receptor at 17D1),1,,21687,,9133,
CCKLR-17D1 (Cholecystokinin-like receptor at 17D1),2,,20028,,14378,
CCKLR-17D1 (Cholecystokinin-like receptor at 17D1),3,,14149,,11024,
Hn (Henna),1,,5211,,1664,
CG32987,1,,6.80e5,7.93e5,2.62e5,3.01e5
ACC (Acetyl-CoA carboxylase),1,,1520,4672,276,1080
ACC (Acetyl-CoA carboxylase),2,,7297,,2066,
GstE3 (Glutathione S transferase E3),1,,5152,,1701,
Hexim (Hexamethylene bisacetamide inducible),1,,4920,,1568,
Ric (Ras-related protein interacting with calmodulin),1,Wg reporter activity raised,6192,,1911,
eIF4E3 (eukaryotic translation initiation factor 4E3),1,,5867,,2196,
CG42458,1,,2131,,573,
CG42458,2,,5376,,726,
Ir7c (Ionotropic receptor 7c),1,,18037,,9180,
"Itpr (Inositol 1,4,5,-trisphosphate receptor)",1,,12957,,3040,
